# According to paper PMC9485057:
# No constants are given. Whether binding was seen depends on the method and setting. Binding seen in cells or lysates may run through a third protein. Binding calls can cover weak binding; strength is not graded here.
# B1: Skp1A (Dictyostelium, recombinant from E. coli) (protein, UniProt P52285 1-162)
# chain: MSLVKLESSDEKVFEIEKEIACMSVTIKNMIEDIGESDSPIPLPNVTSTILEKVLDYCRHHHQHPSPQGDDKKDEKRLDDIPPYDRDFCKVDQPTLFELILAANYLDIKPLLDVTCKTVANMIRGKTPEEIRKIFNIKNDFTPEEEEQIRKENEWCEDKGGN
# Target: His6-ΔNJcdIΔCΔC (D. discoideum)
# Assay: co-purification (Ni2+ affinity + gel filtration); His6-ΔNJcdIΔCΔC and Skp1A co-expressed in E. coli; co-eluted from His-Trap at 250 mM imidazole (0.5 M NaCl) and purified over Superdex200 in 50 mM Hepes-NaOH pH 7.4, 50 mM NaCl, 10% glycerol, 2 mM DTT; SDS-PAGE and Western blot
binder,measurement,value
B1,binding,binds
